{"source": "PubChem BioAssay AID1259254 (NCATS, 2017)", "test": "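Gene knock-downs that lead to re-replication, shown by excess G2 DNA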 (primary screen)", "cell system": "human HCT116 colorectal cancer cells", "reagent": "single siRNA against human genes", "duration": "3 days", "measurement": "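Nuclei stained with Hoechst and imaged; cell-cycle phase assigned by DNA content; G2 share scaled per plate, non-targeting siRNA 0%, GMNN siRNA 100%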", "direction": "G2 robust z-score: higher = more G2 cells, more excess DNA replication", "hit rule": "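An siRNA counts as active if its G2 robust z-score lies at least 5 MADs above the screen median; here such calls match roughly 38% of GMNN control or more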", "note": "Shown is one part, drawn at random, of about 59,000 reagents. About 1,550 of them (2.6%) count as active. 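G2 share is only a proxy for re-replication; each gene was hit by three separate siRNAs, and active genes were retested.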 Unmarked entries are inactive. Further read-outs or replicates are left out here. Not stated in the record: the amount of reagent."}
{"target gene": "NBAT1 (GeneID 729177)", "PubChem SID": "SID160772512", "G2 robust z-score": 0.704}
{"target gene": "NBAT1 (GeneID 729177)", "PubChem SID": "SID160772513", "G2 robust z-score": 2.48}
{"target gene": "NBAT1 (GeneID 729177)", "PubChem SID": "SID160772514", "G2 robust z-score": -0.623}
{"target gene": "TSC2 (GeneID 7249)", "PubChem SID": "SID160718383", "G2 robust z-score": 4.56}
{"target gene": "TSC2 (GeneID 7249)", "PubChem SID": "SID160718384", "G2 robust z-score": 0.605}
{"target gene": "TSC2 (GeneID 7249)", "PubChem SID": "SID160718385", "G2 robust z-score": 0.752}
{"target gene": "CLEC2L (GeneID 154790)", "PubChem SID": "SID160724886", "G2 robust z-score": -0.776}
{"target gene": "CLEC2L (GeneID 154790)", "PubChem SID": "SID160759440", "G2 robust z-score": -0.266}
{"target gene": "CLEC2L (GeneID 154790)", "PubChem SID": "SID160759441", "G2 robust z-score": -0.191}
{"target gene": "ZNF250 (GeneID 58500)", "PubChem SID": "SID160746864", "G2 robust z-score": 3.72}
{"target gene": "ZNF250 (GeneID 58500)", "PubChem SID": "SID160746865", "G2 robust z-score": -1.18}
{"target gene": "ZNF250 (GeneID 58500)", "PubChem SID": "SID160746866", "G2 robust z-score": 0.684}
{"target gene": "SLC25A37 (GeneID 51312)", "PubChem SID": "SID160740580", "G2 robust z-score": -0.963}
{"target gene": "SLC25A37 (GeneID 51312)", "PubChem SID": "SID160740581", "G2 robust z-score": -1.15}
{"target gene": "SLC25A37 (GeneID 51312)", "PubChem SID": "SID160740582", "G2 robust z-score": 0.165}

An excerpt taken from the entries so far, as a working copy:
{"target gene": "ZNF250 (GeneID 58500)", "PubChem SID": "SID160746866", "G2 robust z-score": 0.684}
{"target gene": "SLC25A37 (GeneID 51312)", "PubChem SID": "SID160740580", "G2 robust z-score": -0.963}
{"target gene": "SLC25A37 (GeneID 51312)", "PubChem SID": "SID160740581", "G2 robust z-score": -1.15}
{"target gene": "SLC25A37 (GeneID 51312)", "PubChem SID": "SID160740582", "G2 robust z-score": 0.165}

Next entries follow:
{"target gene": "ZNF236 (GeneID 7776)", "PubChem SID": "SID160719325", "G2 robust z-score": -0.234}
{"target gene": "ZNF236 (GeneID 7776)", "PubChem SID": "SID160719326", "G2 robust z-score": -0.528}
{"target gene": "ZNF236 (GeneID 7776)", "PubChem SID": "SID160719327", "G2 robust z-score": 0.127}
{"target gene": "OCLN (GeneID 100506658)", "PubChem SID": "SID160778340", "G2 robust z-score": -1.14}
{"target gene": "OCLN (GeneID 100506658)", "PubChem SID": "SID160778341", "G2 robust z-score": -0.621}
{"target gene": "OCLN (GeneID 100506658)", "PubChem SID": "SID160778342", "G2 robust z-score": 0.625}
{"target gene": "KCNV2 (GeneID 169522)", "PubChem SID": "SID160760350", "G2 robust z-score": 2.49}
{"target gene": "KCNV2 (GeneID 169522)", "PubChem SID": "SID160760351", "G2 robust z-score": -0.838}
{"target gene": "KCNV2 (GeneID 169522)", "PubChem SID": "SID160760352", "G2 robust z-score": 0.224}
{"target gene": "DEFB104A (GeneID 140596)", "PubChem SID": "SID160732502", "G2 robust z-score": 0.46}
{"target gene": "DEFB104A (GeneID 140596)", "PubChem SID": "SID160757798", "G2 robust z-score": -0.544}
{"target gene": "DEFB104A (GeneID 140596)", "PubChem SID": "SID160757799", "G2 robust z-score": 0.0765}
{"target gene": "CNPY2 (GeneID 10330)", "PubChem SID": "SID160728191", "G2 robust z-score": 0.31}
{"target gene": "CNPY2 (GeneID 10330)", "PubChem SID": "SID160728192", "G2 robust z-score": -0.107}
{"target gene": "CNPY2 (GeneID 10330)", "PubChem SID": "SID160728193", "G2 robust z-score": 1.99}
